According to ChEMBL document CHEMBL4513156, “CO-ADD screening of NCPRI (Romania) compounds”:
Some of the results follow. Results with a measured potency or affinity are listed apart.

The molecules below were run on Pseudomonas aeruginosa. Settings: Concentration 32 ug.mL-1; ASSAY_TEST Inhibition of Bacterial Growth; detection method Absorption (OD600); MEDIA CAMHB; plate type 384well; NBS; CORNING #3640; time 18 hr.
In the case of O=C(N/N=C/C[C@@H]1[C@@H](/C=N/NC(=O)c2ccncc2)[C@H](O)C[C@@H]1O)c1ccncc1, the Inhibition is reported as 8.68%.
With O=C(ON/N=C/[C@@H]1[C@@H]2C[C@H](Cl)[C@H]1C[C@H]2O)c1ccncc1 the Inhibition was 11.34%.
In the case of O=C(NNC(c1ccccc1)(c1ccccc1)c1ccccc1)c1ccncc1, the Inhibition is reported as -2.72%.
Work on O=C(NNC(=O)c1cccc([N+](=O)[O-])c1C(=O)O)c1ccncc1 yielded an Inhibition of 10.43%.
O=C(NNC(=O)[C@@H]1C[C@H](C(=O)O)[C@@H]2CCC[C@@H]21)c1ccncc1 was tested, and the Inhibition was 10.02%.
O=C(NN=CC[C@H]1[C@H](CO)[C@@H](O)C[C@H]1O)c1ccncc1 was tested, and the Inhibition was 9.94%.
COC(=O)CCCCCC[C@@H]1[C@@H](/C=N/NC(=O)c2ccncc2)[C@H](OC(=O)c2ccccc2)C[C@@H]1O was tested, and the Inhibition was 9.99%.
O=C(N/N=C/C[C@@H]1[C@@H](CO)[C@H](O)C[C@@H]1O)c1ccncc1 gave an Inhibition of 12.52%.
With O=C(NNC(=O)c1ccc([N+](=O)[O-])cc1C(=O)O)c1ccncc1 the Inhibition was 10.8%.
Work on CC(C)(C)[Si](C)(C)O[C@H](/C=C/[C@@H]1[C@@H](CC=NNC(=O)c2ccncc2)[C@@H](O)C[C@H]1O[Si](C)(C)C(C)(C)C)CCc1ccccc1 yielded an Inhibition of 3.71%.
In the case of O=C(N/N=C1/C[C@@H]2[C@@H](C(=O)O)[C@H]1C[C@H]2Cl)c1ccncc1, the Inhibition is reported as 12.53%.
O=C1C[C@H]2[C@H](/C=N/NC(=O)c3ccncc3)[C@H](C[C@@H]2Cl)O1 was tested, and the Inhibition was 14.48%.
O=C(NNC(=O)[C@@H]1C[C@H](C(=O)O)[C@@H]2CC=C[C@@H]21)c1ccncc1 gave an Inhibition of 10.12%.
O=C1C[C@@H]2[C@@H](C=NNC(=O)c3ccncc3)[C@@H](C[C@H]2Cl)O1 showed an Inhibition of 14.29%.
Work on O=C(N/N=C1\CC[C@@H]2[C@H]1[C@H](OC(=O)c1ccccc1)C[C@@H]2OC(=O)c1ccccc1)c1ccncc1 yielded an Inhibition of 9.12%.
With COC(=O)CCCCCC[C@@H]1[C@@H](/C=N/NC(=O)c2ccncc2)[C@H](O)C[C@@H]1O the Inhibition was 7.13%.
O=C(N/N=C1\C[C@@H]2[C@H](COC(c3ccccc3)(c3ccccc3)c3ccccc3)C[C@H](CO)[C@@H]2C1)c1ccncc1 gave an Inhibition of 1.84%.
Work on O=C(N/N=C/CCCO)c1ccncc1 yielded an Inhibition of 3.52%.
Molecule O=C(N/N=C1\C[C@@H]2[C@@H](CO)[C@H]1C[C@H]2Cl)c1ccncc1 has an Inhibition of 7.54%.
O=C(NN=CC[C@@H]1[C@@H](COC2CCCCO2)[C@H](OC2CCCCO2)C[C@@H]1O)c1ccncc1 (some centres not stated) showed an Inhibition of 7.45%.
O=C(N/N=C/C[C@@H]1[C@@H](/C=C/[C@@H](O)COc2ccccc2)[C@H](O)C[C@@H]1O)c1ccncc1 gave an Inhibition of 5.39%.
For COC(=O)C[C@H]1[C@H](/C=N\NC(=O)c2ccncc2)[C@@H](O[Si](C)(C)C(C)(C)C)C[C@@H]1Cl, the Inhibition was 14.32%.
O=C(N/N=C1/C2C[C@H]3C(C2CO)[C@H]13)c1ccncc1 (some centres not stated) gave an Inhibition of 10.32%.
O=C(N/N=C/COc1cccc(Cl)c1)c1ccncc1 gave an Inhibition of 5.17%.
Molecule NNC(=O)c1ccncc1 [ISONIAZID] has an Inhibition of 12.59%.
O=C(N/N=C1/C2C[C@H]3C(C2C(=O)O)[C@@H]13)c1ccncc1 (some centres not stated) gave an Inhibition of 7.48%.
For CC(C)(C)[Si](C)(C)OC[C@H]1[C@H](CC=NNC(=O)c2ccncc2)[C@H](O)C[C@@H]1O[Si](C)(C)C(C)(C)C, the Inhibition was 13.2%.
With O=C(NN=CC[C@@H]1[C@@H](/C=C/[C@@H](O)CCc2ccccc2)[C@H](OC(=O)c2ccccc2)C[C@@H]1O)c1ccncc1 the Inhibition was 4.08%.
Molecule O=C(NN=C[C@H]1[C@@H]2CCO[C@@H]2C[C@@H]1O)c1ccncc1 has an Inhibition of 4.35%.
O=C(N/N=C/[C@@H]1C[C@H](CO)[C@@H]2CCC[C@@H]21)c1ccncc1 was tested, and the Inhibition was 11.04%.
Molecule O=C(N/N=C/C[C@@H]1[C@@H](/C=C/[C@@H](O)COc2cccc(Cl)c2)[C@H](O)C[C@@H]1O)c1ccncc1 has an Inhibition of 8.91%.
With CC(C)(C)[Si](C)(C)OCC1C2C[C@H]3C1[C@@H]3/C2=N/NC(=O)c1ccncc1 (some centres not stated) the Inhibition was 4.45%.
Work on O=C(N/N=C1/C[C@H]2[C@H](CO)[C@@H]1C[C@@H]2Cl)c1ccncc1 yielded an Inhibition of 9.04%.
O=C(N/N=C1/C[C@@H]2[C@H](C1)[C@H](OC(=O)c1ccccc1)C[C@@H]2OC(=O)c1ccccc1)c1ccncc1 showed an Inhibition of 10.82%.
O=C(NN=CC[C@@H]1[C@@H](/C=C/[C@@H](O)CCc2ccccc2)[C@H](O)C[C@@H]1O)c1ccncc1 was tested, and the Inhibition was 5.13%.
Work on O=C(NN=C[C@H]1[C@H]2CC(O)OC[C@H]2C[C@H]1O)c1ccncc1 (some centres not stated) yielded an Inhibition of 3.75%.
Molecule O=C(N/N=C1/C[C@@H]2[C@H](COC(c3ccccc3)(c3ccccc3)c3ccccc3)C[C@H](COC(c3ccccc3)(c3ccccc3)c3ccccc3)[C@@H]2C1)c1ccncc1 has an Inhibition of 0.62%.
